# Source: PubChem BioAssay AID1347076 (National Center for Advancing Translational Sciences (NCATS), 2019)
# Out of some 400,000 compounds screened, about 13,000 (3.2%) were called active. Inconclusive results, whose numbers are uncertain, are shown with a selection of clear calls. Calls follow the shape of the dose curve; as a rule, active = well fitted cell-killing curve with a large enough effect; inconclusive = small, poorly fitted or top-dose-only effect, or effect the other way; inactive = flat fitted curve, though single readings scatter. Potencies beside an inconclusive call are fits to weak or partial responses and may not hold up.
# Test: qHTS assay for MDR1-selective chemotherapeutics: Primary screen using the drug-selected MDR subline cells KB-V1; also: nearly all actives have a fitted effect of over 60% in size
# Settings: KB-V1 MDR cells viability, CellTiter-Glo, 72 h; activity change, negative = cytotoxicity: at 46.1 µM (top of the series)
# Outline: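 Drug-selected KB-V1 cells, grown in DMEM lacking phenol red with 10% FBS, receive compound titrations; after three days at 37 degrees C, surviving cell ATP is quantified by CellTiter-Glo luminescence and responses normalized and curve-fitted.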
# % is scaled to controls: 0 for no effect and ±100 for the full control effect; potency is read from the fitted curve at half-maximal effect.
Structure (SMILES),Potency,"activity change, negative = cytotoxicity"
O=C(NCc1ccc2c(c1)OCO2)c1ccc(Cl)s1,"inconclusive: 14.6 µM [cytotoxic, partial curve]",–
CCCCn1c(-c2ccc(C)cc2)c(C)n2c3c(=O)n(C)c(=O)n(C)c3nc12,"inconclusive: 5.8 µM [cytotoxic, full curve]",–
O=C(NC(NC1CCS(=O)(=O)C1)C(=O)c1cccs1)c1ccccc1 (stereo unspecified),–,inactive: 10.7%
Cc1ccccc1NC(=O)CN1C(=O)CCn2nc(-c3cccn3C)cc21,–,inactive: -3.56%
OCC1OC(n2ccc3c(SCc4ccccc4)ncnc32)C(O)C1O (stereo unspecified),"inconclusive: 8.2 µM [cytotoxic, partial curve, poor fit]",–
O=C1/C(=C/c2cccs2)N=C(c2cccs2)N1Nc1ccccc1,–,inactive: -26.8%
O=S(=O)(NC1CCCC1)c1ccc(S(=O)(=O)N2CCc3ccccc32)cc1,"inconclusive: 23.1 µM [cytotoxic, single point]",–
O=C(Nc1ccc2nc(-c3ccco3)c(-c3ccco3)nc2c1)N1CCN(c2ccccn2)CC1,"inconclusive: 4.11 µM [cytotoxic, full curve]",–
CCCC(=O)O[C@@H]1C[C@@H](C)N(C(=O)c2ccccc2)c2ccc(C)cc21,"inconclusive: 18.4 µM [cytotoxic, partial curve]",–
OC(Cc1ccccc1Br)c1ncc(-c2cccc(C(F)(F)F)c2)[nH]1 (stereo unspecified),"inconclusive: 20.6 µM [cytotoxic, single point]",–
CC(=O)N/C(=C\c1cccc([N+](=O)[O-])c1)C(=O)NC1CCCCC1,"inconclusive: 18.4 µM [cytotoxic, partial curve, poor fit]",–
CCn1cc(C(=O)NCc2ccccc2Cl)c(=O)c2cc(S(=O)(=O)N3CCCCC3)ccc21,"inconclusive: 20.6 µM [cytotoxic, single point]",–
CCN(CCO)c1nc(N2CCCCC2)c2cnn(C)c2n1,–,inactive: 7.2%
Cc1ccc(NC(NC(=O)c2ccccc2[N+](=O)[O-])C(Cl)(Cl)Cl)cc1 (stereo unspecified),active: 20.6 µM,–
CCCNC(=O)c1ccc(S(=O)(=O)c2ccc(OC)cc2)c([N+](=O)[O-])c1,"inconclusive: 29.1 µM [cytotoxic, single point]",–
CCOc1ccc(N(CC)C(=O)CSc2n[nH]c(-c3ccccc3)n2)cc1,"inconclusive: 29.1 µM [cytotoxic, single point]",–
O=C(O)c1ccccc1-c1ccccc1C(=O)NCc1ccccc1Cl,"inconclusive: 18.4 µM [rising, single point]",–
Cn1c(-c2sccc2OCc2cccc(C(F)(F)F)c2)n[nH]c1=S,"inconclusive: 29.1 µM [cytotoxic, single point]",–
O=C(CSc1n[nH]c(-c2ccccc2Cl)n1)N1CCN(c2ccccc2F)CC1,–,inactive: -1.46%
COc1ccc(C2NC(=O)CCC2[N+](=O)[O-])cc1 (stereo unspecified),"inconclusive: 29.1 µM [rising, single point]",–
Fc1ccc(NC(=S)N2CCCN(c3ccc(C(F)(F)F)cn3)CC2)c(F)c1,"inconclusive: 2.59 µM [cytotoxic, full curve]",–

Structure (SMILES),Potency,"activity change, negative = cytotoxicity"
Cc1oc(-c2ccc(C(=O)NCc3ccccc3)cc2)nc1CS(=O)(=O)c1ccccc1,"inconclusive: 2.91 µM [cytotoxic, full curve]",–
COc1cc2c(cc1OC)CN(C(=S)Nc1ccccc1Cl)CC2,"inconclusive: 0.0058 µM [rising, full curve, poor fit]",–
Cn1cnnc1SCCC(=O)Nc1ccc(Cl)cc1,"inconclusive: 18.4 µM [cytotoxic, partial curve, poor fit]",–
COc1ccc(CN2C(=O)CCC2(C)C(=O)NC2CCCC2)c(OC)c1 (stereo unspecified),"inconclusive: 18.4 µM [rising, single point]",–
Clc1cccc(-c2nnc(SCc3nc4ccccc4[nH]3)n2Cc2ccco2)c1,"inconclusive: 23.1 µM [cytotoxic, partial curve, poor fit]",–
Cc1ccc(N(CCC#N)C(=O)COC(=O)c2ccccc2SCC(=O)N2CCCC2)cc1,"inconclusive: 23.1 µM [cytotoxic, single point]",–
CC1=C(C(=O)Nc2cccnc2)C(c2ccccc2)n2nc(SCc3ccccc3F)nc2N1 (stereo unspecified),"inconclusive: 13 µM [rising, partial curve, poor fit]",–
O=C(Cc1ccc(Br)cc1)OCC(=O)N1CCOCC1,–,inactive: 5.03%
CCOC(=O)c1ccc(NC(=O)Oc2cc(C)c(Cl)cc2C(C)C)cc1,"inconclusive: 29.1 µM [cytotoxic, single point]",–
COC(=O)c1ccc(CO/N=C/c2cccc([N+](=O)[O-])c2)cc1,"inconclusive: 25.9 µM [rising, partial curve, poor fit]",–
COc1ccc(/C=C2\SC(=O)N(CCNC(=O)C3CC4C=CC3C4)C2=O)cc1 (stereo unspecified),"inconclusive: 20.6 µM [cytotoxic, single point]",–
CN(CC1COc2ccccc2O1)C(=O)CSc1ncnc2sccc12 (stereo unspecified),"inconclusive: 5.17 µM [cytotoxic, partial curve, poor fit]",–
O=C(NC(NC(=O)c1ccccc1)c1ccccc1)c1ccccc1,"inconclusive: 23.1 µM [cytotoxic, partial curve]",–
COc1ccccc1OCCn1c(-c2ccc(Br)cc2)nc2ccccc2c1=O,–,inactive: 1.96%
Cc1cccc(N/C=C/C(=O)c2cccs2)c1C,"inconclusive: 20.6 µM [cytotoxic, partial curve, poor fit]",–
Cc1cc2c(N=NC(=O)CCc3ccccc3)c(O)[nH]c2cc1Br,"inconclusive: 29.1 µM [cytotoxic, single point]",–
Cc1cc(C)n(-c2ccc(C(=O)Nc3nnc(C4CC4)s3)cc2)n1,"inconclusive: 5.17 µM [cytotoxic, full curve]",–
CCCCC(=O)NNC(=O)c1c(O)c2ccccc2[nH]c1=O,active: 9.2 µM,–
CCc1ccc(NC(=O)CSc2nc3ccccc3c(=O)n2CCCN2CCC(C)CC2)cc1,"inconclusive: 23.1 µM [cytotoxic, single point]",–
CSc1ncc(C(=O)N2CCN(c3ccc(F)cc3)CC2)c(C)n1,"inconclusive: 0.0046 µM [rising, full curve, poor fit]",–

# Nine entries from above, with tabs:
Structure (SMILES)	Potency	activity change, negative = cytotoxicity
COc1ccc(CN2C(=O)CCC2(C)C(=O)NC2CCCC2)c(OC)c1 (stereo unspecified)	inconclusive: 18.4 µM [rising, single point]	–
Cc1ccc(N(CCC#N)C(=O)COC(=O)c2ccccc2SCC(=O)N2CCCC2)cc1	inconclusive: 23.1 µM [cytotoxic, single point]	–
CC1=C(C(=O)Nc2cccnc2)C(c2ccccc2)n2nc(SCc3ccccc3F)nc2N1 (stereo unspecified)	inconclusive: 13 µM [rising, partial curve, poor fit]	–
O=C(Cc1ccc(Br)cc1)OCC(=O)N1CCOCC1	–	inactive: 5.03%
CCOC(=O)c1ccc(NC(=O)Oc2cc(C)c(Cl)cc2C(C)C)cc1	inconclusive: 29.1 µM [cytotoxic, single point]	–
COC(=O)c1ccc(CO/N=C/c2cccc([N+](=O)[O-])c2)cc1	inconclusive: 25.9 µM [rising, partial curve, poor fit]	–
COc1ccccc1OCCn1c(-c2ccc(Br)cc2)nc2ccccc2c1=O	–	inactive: 1.96%
Cc1cc2c(N=NC(=O)CCc3ccccc3)c(O)[nH]c2cc1Br	inconclusive: 29.1 µM [cytotoxic, single point]	–
CCc1ccc(NC(=O)CSc2nc3ccccc3c(=O)n2CCCN2CCC(C)CC2)cc1	inconclusive: 23.1 µM [cytotoxic, single point]	–
